In patent US20140120091A1 (University of Washington, published 2014):
No constants are given. Whether binding was seen depends on the method and setting. Some entries that bind do so weakly or less than the wild type.

Sequences of proteins named here, by UniProt entry; tags and fusion partners are left off. A change or cut given only in a name is not applied to a line headed by its entry. Residues count along the entry.
UniProt Q80W65, residues 35-694: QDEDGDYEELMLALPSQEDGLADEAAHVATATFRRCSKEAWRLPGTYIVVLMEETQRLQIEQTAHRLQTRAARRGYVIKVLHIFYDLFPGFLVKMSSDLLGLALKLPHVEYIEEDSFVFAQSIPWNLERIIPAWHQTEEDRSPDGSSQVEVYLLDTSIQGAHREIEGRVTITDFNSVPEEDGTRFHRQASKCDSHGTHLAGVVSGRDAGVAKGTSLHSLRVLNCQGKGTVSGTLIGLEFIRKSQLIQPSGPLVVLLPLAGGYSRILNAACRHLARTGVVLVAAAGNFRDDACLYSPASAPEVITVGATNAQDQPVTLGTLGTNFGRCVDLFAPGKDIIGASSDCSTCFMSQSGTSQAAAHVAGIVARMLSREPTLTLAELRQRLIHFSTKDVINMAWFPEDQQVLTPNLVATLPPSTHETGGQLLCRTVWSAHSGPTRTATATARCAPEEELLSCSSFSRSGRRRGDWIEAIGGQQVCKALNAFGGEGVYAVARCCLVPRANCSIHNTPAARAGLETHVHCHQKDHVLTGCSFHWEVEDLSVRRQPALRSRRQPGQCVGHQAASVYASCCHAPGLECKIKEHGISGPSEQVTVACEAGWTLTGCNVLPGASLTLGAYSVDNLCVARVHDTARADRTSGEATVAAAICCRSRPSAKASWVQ

Key:
[1] = molecular target: mouse PCSK9-his6 (Sino Biologicals, Cat# 50251-M08H) (mouse) (UniProt Q80W65); assay: ELISA, fusion protein immobilized at 2.0, 1.0 and 0.5 ug/ml, mouse PCSK9-his6 10 ug/ml to 10 ng/ml, HRP anti-his6 detection
[2] = molecular target: mouse PCSK9-his6 (Sino Biologicals, Cat# 50251-M08H) (mouse) (UniProt Q80W65); assay: ELISA, fusion protein immobilized, mouse PCSK9-his6 in solution, HRP anti-his6 detection

binding [1]: binds | binding [2]: binds
Substance: hLDLR EGF-AB WT-SSSH-mthIgG1 (from UniProt P01130 314-397) (Fc fusion)
